PubChem BioAssay AID1259290 – Sanger Institute | 2017

Assay: 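Identify kinases needed for colorectal cancer cell survival, with or without anchor drugs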 (primary screen)
Cell system: human SNUC1 colorectal cancer cells
Knock-down reagent: siRNA pool against human genes
Treatment: anchor drugs BYL719 1 µM, cetuximab 5 µg/ml or trametinib 10 nM, or DMSO vehicle alone
Detection: 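Viability averaged over replicates and scaled to non-targeting siRNA, robust z-score with no drug, and synergy scores by drug for BYL719, cetuximab and trametinib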
Scale: viability z-score, siRNA alone: higher = more viable cells; low values mean essential gene; viability vs control, siRNA alone: higher = more viable cells; synergy score with BYL719 and synergy score with Cetuximab: higher = stronger synthetic lethal effect with drug
Rule for the call: 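a knock-down without drug scoring a robust z under -3 counts as essential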
Meaning of the calls: active = essential: knock-down alone cut viability (z below -3); inactive = no clear viability loss with knock-down alone
The deposit covers 794 reagents; shown is a random part of them. Of all reagents, 9 (1.1%) are marked active. 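Calls rest on knock-down alone, not drug synergy; synergy above 0.15 was grouped apart and does not affect calls.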 Viability is capped at 1. Further read-outs or replicates are left out here. The record does not give: the amount of reagent, the time to read-out.

target gene | viability z-score, siRNA alone | viability vs control, siRNA alone | synergy score with BYL719 | synergy score with Cetuximab | Call
PIK3CG | 0.682 | 0.977 | -0.217 | -0.0666 | inactive
GRK6 | -1.2 | 0.807 | -0.0481 | 0.0754 | inactive
PLK2 | 0.936 | 1 | -0.0739 | 0.102 | inactive
VRK1 | 0.936 | 1 | -0.198 | -0.0447 | inactive
SYNCRIP | -0.611 | 0.861 | -0.109 | -0.025 | inactive
TNIK | 0.936 | 1 | -0.0803 | -0.00036 | inactive
IRAK3 | 0.367 | 0.949 | 0.0616 | 0.095 | inactive
NRK | 0.936 | 1 | -0.198 | -0.0447 | inactive
PIP5K1B | 0.867 | 0.994 | -0.166 | 0.0316 | inactive
WIPF1 | 0.936 | 1 | -0.023 | -0.0447 | inactive
PAK6 | -0.927 | 0.832 | -0.191 | -0.0145 | inactive
FXR1 | -0.0405 | 0.912 | -0.218 | -0.091 | inactive
ROS1 | -0.519 | 0.869 | -0.141 | 0.0459 | inactive
TPK1 | 0.936 | 1 | 0.135 | 0.14 | inactive
CDKL4 | 0.727 | 0.981 | -0.213 | 0.00447 | inactive
RIPK4 | 0.71 | 0.98 | -0.215 | 0.0571 | inactive
TAOK1 | 0.415 | 0.953 | -0.236 | -0.0896 | inactive
VRK3 | -0.238 | 0.894 | -0.282 | -0.077 | inactive
NTRK2 | -0.404 | 0.879 | -0.135 | -0.0184 | inactive
SIK2 | -1.88 | 0.746 | -0.113 | -0.0858 | inactive

Reformatted: entries from further up
{"target gene": "TNIK", "viability z-score, siRNA alone": 0.936, "viability vs control, siRNA alone": 1, "synergy score with BYL719": -0.0803, "synergy score with Cetuximab": -0.00036, "Call": "inactive"}
{"target gene": "IRAK3", "viability z-score, siRNA alone": 0.367, "viability vs control, siRNA alone": 0.949, "synergy score with BYL719": 0.0616, "synergy score with Cetuximab": 0.095, "Call": "inactive"}
{"target gene": "NRK", "viability z-score, siRNA alone": 0.936, "viability vs control, siRNA alone": 1, "synergy score with BYL719": -0.198, "synergy score with Cetuximab": -0.0447, "Call": "inactive"}
